Data: article PMC5469152
No constants are given. Whether binding was seen depends on the method and setting. A result given as binding can be weak or reduced; the word gives no strength.

Target: T1, Extra-large G protein 1 (XLG1), yeast two-hybrid bait (Arabidopsis thaliana) (UniProt O80462)
T1 sequence: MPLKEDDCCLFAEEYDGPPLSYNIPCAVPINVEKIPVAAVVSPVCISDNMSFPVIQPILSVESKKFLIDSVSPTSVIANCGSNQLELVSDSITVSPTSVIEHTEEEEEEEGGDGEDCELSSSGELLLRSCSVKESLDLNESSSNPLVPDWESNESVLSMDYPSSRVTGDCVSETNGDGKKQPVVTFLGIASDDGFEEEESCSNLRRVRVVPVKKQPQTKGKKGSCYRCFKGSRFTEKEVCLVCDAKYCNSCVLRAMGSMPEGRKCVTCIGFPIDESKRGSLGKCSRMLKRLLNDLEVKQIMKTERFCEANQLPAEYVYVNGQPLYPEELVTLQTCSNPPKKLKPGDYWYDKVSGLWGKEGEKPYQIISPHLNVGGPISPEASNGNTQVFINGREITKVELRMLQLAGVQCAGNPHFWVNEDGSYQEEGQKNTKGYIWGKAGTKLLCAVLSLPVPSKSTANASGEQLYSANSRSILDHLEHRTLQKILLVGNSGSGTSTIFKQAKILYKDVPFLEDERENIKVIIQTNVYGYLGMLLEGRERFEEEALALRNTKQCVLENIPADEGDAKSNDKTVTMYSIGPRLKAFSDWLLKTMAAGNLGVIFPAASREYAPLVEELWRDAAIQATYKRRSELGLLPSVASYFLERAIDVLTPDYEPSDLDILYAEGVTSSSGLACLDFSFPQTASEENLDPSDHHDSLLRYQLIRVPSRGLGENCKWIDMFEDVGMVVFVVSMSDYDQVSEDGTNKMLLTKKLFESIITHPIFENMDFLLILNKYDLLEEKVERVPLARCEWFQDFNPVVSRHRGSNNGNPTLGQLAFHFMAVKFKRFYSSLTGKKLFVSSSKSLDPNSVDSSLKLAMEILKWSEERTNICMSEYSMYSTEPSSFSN
Test: two-hybrid; library screen by mating; XLG1 bait in pAS2-1 in strain AH109, cDNA libraries (GLUC, ROOT, SAL) in Y187; quadruple dropout (-Try/Leu/His/Ade) plates with 10 mM 3-AT, then with 20 mM 3-AT

Row | binding | Substance
1 | binds | RNA recognition motif-containing protein (At3g04500) (Arabidopsis thaliana)
2 | binds | SCP1-like small phosphatase 4b (Arabidopsis thaliana)
3 | binds | Dessication responsive protein (Arabidopsis thaliana)
